The list shows a part of the results.

The target of the assay is T1, OsSMF1 (Oryza sativa, UniProt Q6ZLB0 1-436).
T1 sequence: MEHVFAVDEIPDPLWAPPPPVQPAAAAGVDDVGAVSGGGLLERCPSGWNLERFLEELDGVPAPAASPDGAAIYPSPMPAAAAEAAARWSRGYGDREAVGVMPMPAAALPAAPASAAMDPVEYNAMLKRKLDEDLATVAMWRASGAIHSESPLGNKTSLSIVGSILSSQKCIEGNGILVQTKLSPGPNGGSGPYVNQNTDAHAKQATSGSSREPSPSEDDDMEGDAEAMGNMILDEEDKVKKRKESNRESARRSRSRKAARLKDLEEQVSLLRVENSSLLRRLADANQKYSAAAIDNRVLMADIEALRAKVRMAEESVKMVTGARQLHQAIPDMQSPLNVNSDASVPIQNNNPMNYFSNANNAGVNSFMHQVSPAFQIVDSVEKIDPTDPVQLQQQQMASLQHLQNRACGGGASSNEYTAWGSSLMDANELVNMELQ
Kind of assay: protein-binding microarray (RPBM); PBS, 2% BSA, 51.3 ng/ul salmon testes DNA, 50 uM zinc acetate, 200 nM TF, 25 C, 1 h; high values mean tight binding. Conditions: protein: recombinant; tags: N-terminal polyhistidine and DsRed monomer fusion (pET32a); chain copies: 2; label: CyDye5-dUTP incorporated in the synthesized complementary strand; 3' TTTTT single-stranded linker to array surface; dsDNA, one strand shown. In a few lines: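 The binding signal is fluorescence intensity per array feature (arbitrary units). Readings came from an Axon 4000B scanner after a washed, 2% BSA-blocked, double-stranded custom Agilent array had been incubated for 1 h at 25 °C with 200 nM protein and 50 µM zinc acetate. The protein was a Ni–NTA-purified transcription factor fused N-terminally to polyhistidine and DsRed, expressed in E. coli BL21-CodonPlus.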
For the sequence “ACAATCTCTTCAATTATATATGTGACATCATACTTTCTATCGGAGTCACCTAGTGCAG”, the binding signal is 4030 fluorescence intensity (a.u.). Under “AGGGGAAAGATATGTGTACGTGTATTCATAGGGGTGAGTGCGGAGTCACCTAGTGCAG” stands 5720 fluorescence intensity (a.u.). Under “GGTCAGTGACTCGCGCGAACGTGGGGTTGACGCGACGTGGCGGAGTCACCTAGTGCAG” stands 6800 fluorescence intensity (a.u.); under “GCAATTCGCTCGGCAGGATTTCAACATTGCGGCCTACTGCCGGAGTCACCTAGTGCAG”, 27800 fluorescence intensity (a.u.). Under “ACGGCCACCCGCATCAACTCTTCCACTCTCTCCATTCCTACGGAGTCACCTAGTGCAG” stands 3710 fluorescence intensity (a.u.); under “CCTCTTCTGATGTGGTCACATTCTCGCGTGCTCATTTGCACGGAGTCACCTAGTGCAG”, 5460 fluorescence intensity (a.u.); under “AATTGCTTTGTTAAACTGTACAGGTATGCTGCTGTATTTGCGGAGTCACCTAGTGCAG”, 3420 fluorescence intensity (a.u.). “CCCACCTCTTGCTATCCACGTCGAACGCAGGATGTGGCGGCGGAGTCACCTAGTGCAG”: the binding signal is 23900 fluorescence intensity (a.u.). Under “CTGTTCATTCACATGGAGACGCACACGTGCTGTGACTTGGCGGAGTCACCTAGTGCAG” stands 3300 fluorescence intensity (a.u.); under “GAGCGTGTAATACGTGTCTTACCCACAACGCCTCTCTTCACGGAGTCACCTAGTGCAG”, 7900 fluorescence intensity (a.u.); under “ATGTAGATTCTATCTCGATTTTCACTATTACGTTTCGAAACGGAGTCACCTAGTGCAG”, 23700 fluorescence intensity (a.u.). Under “CATTCTACAACCAGGAGTCCACGTCCTTCCACACCTTTTCCGGAGTCACCTAGTGCAG” stands 6270 fluorescence intensity (a.u.). “CACCACACCAGCTCACACACGCTGTGCTGCTGCTGCTGCCCGGAGTCACCTAGTGCAG”: the binding signal was 3620 fluorescence intensity (a.u.). The result for “CTCTCCTCTCCTCCTCCTGCTGCCGTCCACGCGACACCACCGGAGTCACCTAGTGCAG” reads 3320 fluorescence intensity (a.u.); that for “GTATCAGTGACTAGACCATAAACTTGCTCTTACCAAGGTGCGGAGTCACCTAGTGCAG”, 3600 fluorescence intensity (a.u.); that for “ACCCGAGAGATGAACTTCGATGACCTGTGGTATGTGGACCCGGAGTCACCTAGTGCAG”, 4770 fluorescence intensity (a.u.). The result for “CCGCTCCCACACCGGCGCCACCGCCGCCGGCTCCTGCGCCCGGAGTCACCTAGTGCAG” reads 24500 fluorescence intensity (a.u.); that for “TGGCCGGAATCACACGCACAAGGTGCTGCGTCACCTATAACGGAGTCACCTAGTGCAG”, 9040 fluorescence intensity (a.u.).

For “ATTGAGGACGATGTGACCGCAACGTGGAGTAGATAGAGTTCGGAGTCACCTAGTGCAG”, the binding signal was 3740 fluorescence intensity (a.u.).

Regarding “CTCGAGAGTTATTTATTATTTATATTTCCAAAGGTTTGACCGGAGTCACCTAGTGCAG”, the binding signal was 25900 fluorescence intensity (a.u.). The result for “GAGGAATTGAAGGCATCATCACAGCTGACACAGCCATTTGCGGAGTCACCTAGTGCAG” reads 5170 fluorescence intensity (a.u.); that for “ATCCGGATGCTGCGGAGTAATCACCTACTTAGAGCAGTACCGGAGTCACCTAGTGCAG”, 4580 fluorescence intensity (a.u.). Under “TGACTAATTCATCACTCACCATCATCATTATCCCTTTAATCGGAGTCACCTAGTGCAG” stands 21800 fluorescence intensity (a.u.); under “TATACTATTTCTTTCTTTTCCACCGTTGACGTTTTAGAACCGGAGTCACCTAGTGCAG”, 16200 fluorescence intensity (a.u.); under “ACACCTCGCGACGACGACACACATGACACATATCCGTCCACGGAGTCACCTAGTGCAG”, 4330 fluorescence intensity (a.u.). The result for “ACAAACCATCGTATACACGACGACTCCACCTATCTCGGCACGGAGTCACCTAGTGCAG” reads 3200 fluorescence intensity (a.u.); that for “ATGAAAATACTTTAAAAGTTAAGTCACACATAAAGTACTGCGGAGTCACCTAGTGCAG”, 3930 fluorescence intensity (a.u.). For the sequence “ACGTGCTCAGTCATCATCCTCATGGCCGTTCCTTGCCGAACGGAGTCACCTAGTGCAG”, the binding signal is 6930 fluorescence intensity (a.u.). “GGCCCACGCCGGCAGATCAGGTGGGGAGAGAAGCTCCGCCCGGAGTCACCTAGTGCAG”: the binding signal is 14700 fluorescence intensity (a.u.). The result for “TATCCCTAGATCGACGCTTCCAACTGTGACCAAGCAGATGCGGAGTCACCTAGTGCAG” reads 3360 fluorescence intensity (a.u.); that for “TGAGAATGCATTTCATATCTAACACATATCTTTATAGTAACGGAGTCACCTAGTGCAG”, 7310 fluorescence intensity (a.u.). Under “CTCGACCGGTGGGGCGTCTCCGAAACCCTCCATCTCGACACGGAGTCACCTAGTGCAG” stands 36200 fluorescence intensity (a.u.). The result for “CTGAGCAGCAGCAGCTTCGCCAGCTCGCGATCCCCTGCAACGGAGTCACCTAGTGCAG” reads 3560 fluorescence intensity (a.u.). Consider “TCGCCGCCGGAGCCGTGCTCGCTCGGGTGGACCTTCGGCACGGAGTCACCTAGTGCAG”, for which the binding signal was 27400 fluorescence intensity (a.u.).

Regarding “CATGAGATGATTGAACTGGGACATGTTAGTCAAGGTTTTCCGGAGTCACCTAGTGCAG”, the binding signal was 3340 fluorescence intensity (a.u.).

Consider “CAGAGTGTGAGAATCTACCCACAACAACATCTGGATCATCCGGAGTCACCTAGTGCAG”, for which the binding signal was 3140 fluorescence intensity (a.u.). The result for “CATTGAGGCCATGTCATGGATGACGTGGATGCAAATCTTCCGGAGTCACCTAGTGCAG” reads 30600 fluorescence intensity (a.u.); that for “CATCCGTACTCCTCCTTCGTGATGCTGACACCCACATCATCGGAGTCACCTAGTGCAG”, 6720 fluorescence intensity (a.u.); that for “GAGAGGAGGGGCGTTGCCAGGGAGAAGAGGGGTTGCGGGGCGGAGTCACCTAGTGCAG”, 3820 fluorescence intensity (a.u.). The result for “ACTCGAAGTCAAAGTCAAACAGAACAGCCACGTCTGTCTCCGGAGTCACCTAGTGCAG” reads 7390 fluorescence intensity (a.u.). The result for “CGGTTGAGCACGTCGTCGTGGTGGTTCTCCTCGGCGGACCCGGAGTCACCTAGTGCAG” reads 3250 fluorescence intensity (a.u.); that for “CTCATCCGACGTTCGTGTCACGATCAAGTTGACACTGACTCGGAGTCACCTAGTGCAG”, 5570 fluorescence intensity (a.u.); that for “CCGAGAGGACACGCACTAGGCGGAGATGCGTTGGCGGTCGCGGAGTCACCTAGTGCAG”, 3620 fluorescence intensity (a.u.).

“ATAAAACGAAAACTGTTTGTTAAGACGTGGCGCATGCATACGGAGTCACCTAGTGCAG”: the binding signal was 5570 fluorescence intensity (a.u.).

For the sequence “TGCAACCACCACCACCACGTCCCAAACTCGCACGTTTCTCCGGAGTCACCTAGTGCAG”, the binding signal is 4090 fluorescence intensity (a.u.). Under “AATACTTCAAATGTGTTTCCGTATATCCAATGTTACACACCGGAGTCACCTAGTGCAG” stands 36000 fluorescence intensity (a.u.); under “CTACCGGTCCATCTTGGATAGTAAGCCACGGCAGTGTTCACGGAGTCACCTAGTGCAG”, 3380 fluorescence intensity (a.u.). The result for “CCTTCACACTATGGCTTTACACAACTAGATAAACATCGTCCGGAGTCACCTAGTGCAG” reads 3540 fluorescence intensity (a.u.); that for “GTGAGATTTATCTAACACGCCACACTGATTTGGTTCAATTCGGAGTCACCTAGTGCAG”, 3580 fluorescence intensity (a.u.). Turning to “CCGATGATGACGCCACCTACGCCGTCGTCTCCCGTGTGCTCGGAGTCACCTAGTGCAG”, the binding signal was 6180 fluorescence intensity (a.u.). Under “CTACGCTATCCCCGTATAAAATTTGCGTCACTCCACCATCCGGAGTCACCTAGTGCAG” stands 5100 fluorescence intensity (a.u.); under “CGCGGAGCTTAAGCTAACGCCCGCCGTTTCGTCGTCATCACGGAGTCACCTAGTGCAG”, 4520 fluorescence intensity (a.u.); under “CACGGTGCGGGGCGGTGCGGTGTGGCATCACACGTGTCGCCGGAGTCACCTAGTGCAG”, 7980 fluorescence intensity (a.u.). Under “CGGGAGAGAAGCCCACGTCACTCCCATAAATGGATGTGGACGGAGTCACCTAGTGCAG” stands 9320 fluorescence intensity (a.u.).
